± gives the standard deviation of the averaged measurements. The entries are a selection whose mix differs from that of the whole data set.
Compound: Nc1ncnc2c1ncn2[C@@H]1O[C@H](COP(=O)(O)OP(=O)(O)NP(=O)(O)O)[C@@H](O)[C@H]1O [adenylyl imidodiphosphate]
Experiment: NP40-soluble protein abundance relative to vehicle (solubility fold change) (ratio); higher = more soluble protein in presence of AMP-PNP
Method in brief: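 Crude Jurkat lysate, prepared by Dounce homogenisation, was exposed to eight concentrations from 0.1 to 10 mM for 10 min at room temperature and then 3 min at 37 °C. Solubilisation used 0.8% NP40 with benzonase for 60 min at 4 °C, followed by ultracentrifugation and TMT labelling of the supernatant for LC-MS/MS. After vsn normalisation of intensities, each value is the fold change against the detergent-processed vehicle within each replicate, across three independent experiments.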

Amino acid sequences for entries named in this document (tags omitted). A change or cut given only in a name is not applied to a line headed by its entry.
UniProt P62633: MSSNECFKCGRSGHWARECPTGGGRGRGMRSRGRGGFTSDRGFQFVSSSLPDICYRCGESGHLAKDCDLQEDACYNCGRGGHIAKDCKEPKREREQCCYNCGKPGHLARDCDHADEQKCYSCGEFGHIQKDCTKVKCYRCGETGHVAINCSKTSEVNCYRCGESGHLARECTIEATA
UniProt P59190: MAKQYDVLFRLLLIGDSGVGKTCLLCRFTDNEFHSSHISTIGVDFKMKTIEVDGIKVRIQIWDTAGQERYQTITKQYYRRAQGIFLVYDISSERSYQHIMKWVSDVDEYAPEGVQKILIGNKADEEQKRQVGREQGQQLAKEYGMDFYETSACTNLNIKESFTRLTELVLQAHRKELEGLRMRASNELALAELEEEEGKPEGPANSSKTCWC
UniProt P60174, whole entry: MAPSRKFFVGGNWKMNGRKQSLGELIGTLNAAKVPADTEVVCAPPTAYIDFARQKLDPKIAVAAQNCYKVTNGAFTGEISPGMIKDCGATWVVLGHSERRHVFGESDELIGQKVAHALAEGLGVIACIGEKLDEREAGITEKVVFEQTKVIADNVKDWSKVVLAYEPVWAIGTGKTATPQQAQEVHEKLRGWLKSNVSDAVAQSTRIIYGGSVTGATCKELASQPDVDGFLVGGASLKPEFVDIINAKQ
UniProt Q02446, whole entry: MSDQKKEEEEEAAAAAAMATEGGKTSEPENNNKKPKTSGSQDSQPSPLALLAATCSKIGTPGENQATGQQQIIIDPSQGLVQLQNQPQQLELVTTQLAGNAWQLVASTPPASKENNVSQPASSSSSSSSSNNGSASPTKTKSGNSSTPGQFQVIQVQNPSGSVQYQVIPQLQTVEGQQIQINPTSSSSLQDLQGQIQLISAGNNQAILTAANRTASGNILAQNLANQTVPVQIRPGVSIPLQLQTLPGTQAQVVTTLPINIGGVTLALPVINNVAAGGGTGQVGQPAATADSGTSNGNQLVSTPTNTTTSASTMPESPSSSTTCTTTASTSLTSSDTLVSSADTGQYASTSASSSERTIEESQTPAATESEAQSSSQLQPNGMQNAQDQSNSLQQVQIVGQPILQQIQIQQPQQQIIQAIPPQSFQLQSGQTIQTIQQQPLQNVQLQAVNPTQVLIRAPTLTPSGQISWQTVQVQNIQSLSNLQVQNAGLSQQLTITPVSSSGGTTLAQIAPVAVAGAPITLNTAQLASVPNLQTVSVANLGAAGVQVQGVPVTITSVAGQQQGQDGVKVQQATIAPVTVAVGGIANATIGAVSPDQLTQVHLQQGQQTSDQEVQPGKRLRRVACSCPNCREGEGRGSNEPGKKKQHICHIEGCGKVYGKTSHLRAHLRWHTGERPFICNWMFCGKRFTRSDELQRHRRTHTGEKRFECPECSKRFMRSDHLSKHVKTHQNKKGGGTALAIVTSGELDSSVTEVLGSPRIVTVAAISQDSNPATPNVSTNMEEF
UniProt Q04727: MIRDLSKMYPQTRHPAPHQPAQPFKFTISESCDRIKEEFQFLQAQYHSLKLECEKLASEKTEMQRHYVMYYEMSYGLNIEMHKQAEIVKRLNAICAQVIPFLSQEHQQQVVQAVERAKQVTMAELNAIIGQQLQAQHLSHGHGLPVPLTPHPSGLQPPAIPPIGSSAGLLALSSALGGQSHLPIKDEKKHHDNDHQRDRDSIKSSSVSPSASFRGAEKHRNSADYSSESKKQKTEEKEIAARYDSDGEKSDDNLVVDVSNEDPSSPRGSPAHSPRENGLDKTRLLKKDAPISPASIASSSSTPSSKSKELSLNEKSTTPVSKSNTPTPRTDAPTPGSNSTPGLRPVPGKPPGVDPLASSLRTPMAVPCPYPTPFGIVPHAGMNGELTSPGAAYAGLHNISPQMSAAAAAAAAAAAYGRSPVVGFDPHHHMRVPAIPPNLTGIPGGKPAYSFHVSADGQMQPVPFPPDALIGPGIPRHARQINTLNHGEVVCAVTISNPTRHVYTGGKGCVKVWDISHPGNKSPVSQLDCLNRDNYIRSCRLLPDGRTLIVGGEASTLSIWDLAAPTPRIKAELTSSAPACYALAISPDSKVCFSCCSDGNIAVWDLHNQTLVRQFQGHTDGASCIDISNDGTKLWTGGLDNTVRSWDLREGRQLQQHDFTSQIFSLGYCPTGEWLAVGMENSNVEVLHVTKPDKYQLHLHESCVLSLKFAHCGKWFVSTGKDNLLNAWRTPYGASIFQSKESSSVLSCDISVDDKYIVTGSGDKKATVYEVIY
UniProt P62310: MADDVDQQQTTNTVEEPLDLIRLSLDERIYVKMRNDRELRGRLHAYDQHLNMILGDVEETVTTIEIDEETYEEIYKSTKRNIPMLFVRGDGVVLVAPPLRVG
UniProt P60983, whole entry: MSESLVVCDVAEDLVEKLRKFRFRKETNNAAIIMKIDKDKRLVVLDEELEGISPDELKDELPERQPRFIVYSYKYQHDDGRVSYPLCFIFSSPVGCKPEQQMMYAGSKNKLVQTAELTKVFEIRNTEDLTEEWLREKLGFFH
UniProt P62714, whole entry: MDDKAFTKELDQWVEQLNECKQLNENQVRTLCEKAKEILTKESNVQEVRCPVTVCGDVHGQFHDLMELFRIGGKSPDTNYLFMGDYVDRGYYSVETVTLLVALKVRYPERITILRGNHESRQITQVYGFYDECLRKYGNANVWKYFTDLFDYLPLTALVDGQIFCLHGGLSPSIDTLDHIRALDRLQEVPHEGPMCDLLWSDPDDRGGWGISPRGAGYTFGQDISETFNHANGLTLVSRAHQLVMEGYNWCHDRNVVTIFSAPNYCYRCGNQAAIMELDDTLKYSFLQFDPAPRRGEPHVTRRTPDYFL
UniProt Q06330: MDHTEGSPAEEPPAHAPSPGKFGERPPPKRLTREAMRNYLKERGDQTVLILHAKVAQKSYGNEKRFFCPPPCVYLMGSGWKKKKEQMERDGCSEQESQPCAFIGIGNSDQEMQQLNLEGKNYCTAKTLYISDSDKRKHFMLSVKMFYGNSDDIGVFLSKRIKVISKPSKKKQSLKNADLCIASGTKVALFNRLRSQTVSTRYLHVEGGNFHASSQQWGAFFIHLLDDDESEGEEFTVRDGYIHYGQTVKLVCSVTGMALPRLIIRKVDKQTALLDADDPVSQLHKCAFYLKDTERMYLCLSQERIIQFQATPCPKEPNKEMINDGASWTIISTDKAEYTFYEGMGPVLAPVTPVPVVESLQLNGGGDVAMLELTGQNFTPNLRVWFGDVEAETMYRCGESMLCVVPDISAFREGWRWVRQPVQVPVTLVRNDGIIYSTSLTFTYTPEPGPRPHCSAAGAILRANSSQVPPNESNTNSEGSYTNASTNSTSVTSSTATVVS
UniProt P68104, whole entry: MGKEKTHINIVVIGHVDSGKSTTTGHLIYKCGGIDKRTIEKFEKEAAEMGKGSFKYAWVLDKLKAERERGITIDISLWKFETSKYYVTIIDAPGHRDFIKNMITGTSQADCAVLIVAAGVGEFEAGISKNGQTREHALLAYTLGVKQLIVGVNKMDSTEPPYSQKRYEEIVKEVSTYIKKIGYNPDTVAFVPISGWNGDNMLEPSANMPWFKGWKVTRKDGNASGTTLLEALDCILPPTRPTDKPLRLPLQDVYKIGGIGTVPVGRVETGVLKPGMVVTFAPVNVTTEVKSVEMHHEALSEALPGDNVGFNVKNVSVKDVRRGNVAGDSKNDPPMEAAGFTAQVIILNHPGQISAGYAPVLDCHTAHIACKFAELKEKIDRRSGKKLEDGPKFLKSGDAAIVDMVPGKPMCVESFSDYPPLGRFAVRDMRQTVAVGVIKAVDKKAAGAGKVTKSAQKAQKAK
UniProt P61966: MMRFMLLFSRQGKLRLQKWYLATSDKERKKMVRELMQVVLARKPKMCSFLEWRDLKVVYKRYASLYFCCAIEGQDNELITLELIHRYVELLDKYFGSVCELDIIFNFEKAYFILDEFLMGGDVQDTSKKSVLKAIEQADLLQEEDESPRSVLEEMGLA
UniProt Q07817, whole entry: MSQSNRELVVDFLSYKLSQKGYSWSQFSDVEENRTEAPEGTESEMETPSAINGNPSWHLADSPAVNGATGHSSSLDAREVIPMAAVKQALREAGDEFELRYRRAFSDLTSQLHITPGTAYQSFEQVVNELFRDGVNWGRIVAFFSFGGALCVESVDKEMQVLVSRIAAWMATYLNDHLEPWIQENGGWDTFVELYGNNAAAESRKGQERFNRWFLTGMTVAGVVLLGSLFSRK
UniProt P60981: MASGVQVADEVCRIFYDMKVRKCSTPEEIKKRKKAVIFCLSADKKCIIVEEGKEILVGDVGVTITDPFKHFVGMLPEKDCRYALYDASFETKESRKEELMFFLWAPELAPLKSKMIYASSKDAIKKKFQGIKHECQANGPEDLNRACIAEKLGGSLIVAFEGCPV
UniProt P98095: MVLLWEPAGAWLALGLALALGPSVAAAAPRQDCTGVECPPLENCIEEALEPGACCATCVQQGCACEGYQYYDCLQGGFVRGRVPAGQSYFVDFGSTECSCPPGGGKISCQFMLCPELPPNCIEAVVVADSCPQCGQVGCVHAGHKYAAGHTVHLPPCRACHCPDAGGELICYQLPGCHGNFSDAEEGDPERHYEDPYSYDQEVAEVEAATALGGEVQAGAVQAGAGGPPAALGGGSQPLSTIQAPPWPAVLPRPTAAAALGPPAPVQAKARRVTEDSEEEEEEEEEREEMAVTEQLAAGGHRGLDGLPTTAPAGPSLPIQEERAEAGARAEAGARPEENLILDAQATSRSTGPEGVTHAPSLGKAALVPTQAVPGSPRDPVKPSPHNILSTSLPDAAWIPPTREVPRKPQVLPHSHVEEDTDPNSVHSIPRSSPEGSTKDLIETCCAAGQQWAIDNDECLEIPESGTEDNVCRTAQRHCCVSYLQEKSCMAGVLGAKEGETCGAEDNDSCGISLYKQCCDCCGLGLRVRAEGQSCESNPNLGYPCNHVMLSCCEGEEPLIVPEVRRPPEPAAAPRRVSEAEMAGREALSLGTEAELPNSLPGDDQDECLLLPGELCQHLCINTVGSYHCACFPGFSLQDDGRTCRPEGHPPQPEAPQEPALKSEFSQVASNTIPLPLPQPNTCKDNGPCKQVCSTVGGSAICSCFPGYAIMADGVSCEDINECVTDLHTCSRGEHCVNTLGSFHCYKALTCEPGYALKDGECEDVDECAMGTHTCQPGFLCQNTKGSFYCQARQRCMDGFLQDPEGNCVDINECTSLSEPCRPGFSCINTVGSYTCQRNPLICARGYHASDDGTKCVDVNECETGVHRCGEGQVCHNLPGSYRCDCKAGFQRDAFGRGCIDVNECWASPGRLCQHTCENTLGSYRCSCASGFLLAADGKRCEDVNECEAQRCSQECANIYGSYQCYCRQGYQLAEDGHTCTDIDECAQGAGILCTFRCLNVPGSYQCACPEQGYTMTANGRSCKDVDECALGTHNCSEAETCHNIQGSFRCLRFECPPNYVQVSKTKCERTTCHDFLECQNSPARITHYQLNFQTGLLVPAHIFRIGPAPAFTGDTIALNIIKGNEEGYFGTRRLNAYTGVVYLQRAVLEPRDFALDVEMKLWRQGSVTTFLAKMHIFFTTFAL
UniProt P61204: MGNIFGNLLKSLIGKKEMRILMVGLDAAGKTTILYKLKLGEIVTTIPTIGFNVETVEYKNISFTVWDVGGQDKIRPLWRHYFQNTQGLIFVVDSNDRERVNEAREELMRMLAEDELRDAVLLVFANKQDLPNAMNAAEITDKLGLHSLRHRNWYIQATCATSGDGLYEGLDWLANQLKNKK
UniProt Q00653: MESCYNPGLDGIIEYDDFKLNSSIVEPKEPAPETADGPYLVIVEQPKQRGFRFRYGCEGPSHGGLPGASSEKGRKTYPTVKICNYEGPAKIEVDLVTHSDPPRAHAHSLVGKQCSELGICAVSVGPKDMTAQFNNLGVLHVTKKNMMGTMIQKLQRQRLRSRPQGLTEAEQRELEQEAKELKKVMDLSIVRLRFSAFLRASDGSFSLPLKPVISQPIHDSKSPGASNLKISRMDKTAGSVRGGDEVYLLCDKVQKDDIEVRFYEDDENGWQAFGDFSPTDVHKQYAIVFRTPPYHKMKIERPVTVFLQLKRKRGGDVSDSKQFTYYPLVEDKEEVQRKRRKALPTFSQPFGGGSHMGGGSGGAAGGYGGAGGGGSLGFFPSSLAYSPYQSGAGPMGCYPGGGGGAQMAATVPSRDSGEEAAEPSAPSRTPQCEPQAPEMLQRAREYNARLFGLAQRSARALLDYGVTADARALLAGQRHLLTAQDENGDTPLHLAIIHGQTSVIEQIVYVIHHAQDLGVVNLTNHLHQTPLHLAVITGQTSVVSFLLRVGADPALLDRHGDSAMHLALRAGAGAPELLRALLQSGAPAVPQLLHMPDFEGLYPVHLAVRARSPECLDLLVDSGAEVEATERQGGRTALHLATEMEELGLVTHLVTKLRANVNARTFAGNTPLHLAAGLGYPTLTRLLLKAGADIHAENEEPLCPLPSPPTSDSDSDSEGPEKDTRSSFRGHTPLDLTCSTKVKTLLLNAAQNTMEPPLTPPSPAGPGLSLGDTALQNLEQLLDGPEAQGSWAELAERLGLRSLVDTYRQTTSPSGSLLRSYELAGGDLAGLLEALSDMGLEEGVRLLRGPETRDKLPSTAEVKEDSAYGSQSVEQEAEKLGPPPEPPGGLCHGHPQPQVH

Row | Target | NP40-soluble protein abundance (concentration: 1mM) | NP40-soluble protein abundance (concentration: 2mM) | NP40-soluble protein abundance (concentration: 4mM) | NP40-soluble protein abundance (concentration: 6mM) | NP40-soluble protein abundance (concentration: 8mM) | NP40-soluble protein abundance (concentration: 10mM)
1 | UniProt P62633 and related entries | 1.03 ± 0.044 | 1.11 ± 0.081 | 1.02 ± 0.1 | 0.996 ± 0.031 | 1.03 ± 0.037 | 0.984 ± 0.053
2 | UniProt P59190 | 0.994 ± 0.025 | 1.04 ± 0.12 | 0.98 ± 0.025 | 0.993 ± 0.033 | 1.02 ± 0.041 | 0.9965 ± 0.0069
3 | UniProt P60174 and related entries | 1.027 ± 0.01 | 1.02 ± 0.042 | 0.967 ± 0.05 | 1.006 ± 0.0073 | 0.969 ± 0.03 | 0.961 ± 0.036
4 | UniProt P61964 | 1.002 ± 0.0068 | 1.03 ± 0.017 | 1.028 ± 0.0054 | 1.07 ± 0.04 | 1.1 ± 0.039 | 1.12 ± 0.05
5 | SP4 (UniProt Q02446) | 1.02 ± 0.03 | 1.04 ± 0.047 | 0.999 ± 0.014 | 1.01 ± 0.017 | 1.01 ± 0.054 | 1.03 ± 0.032
6 | UniProt P62851 | 1.01 ± 0.053 | 1.04 ± 0.051 | 0.961 ± 0.04 | 0.9841 ± 0.0092 | 0.792 ± 0.038 | 1.07 ± 0.063
7 | UniProt P62273 | 0.9864 ± 0.0094 | 0.974 ± 0.046 | 0.96 ± 0.075 | 0.921 ± 0.044 | 0.806 ± 0.12 | 0.962 ± 0.09
8 | UniProt Q04727 and related entries | 1 ± 0.02 | 1.01 ± 0.012 | 0.9614 ± 0.0064 | 0.9512 ± 0.0039 | 0.908 ± 0.028 | 0.948 ± 0.021
9 | UniProt P61254 | 0.992 ± 0.12 | 0.988 ± 0.11 | 0.965 ± 0.1 | 0.937 ± 0.082 | 0.954 ± 0.12 | 1.03 ± 0.21
10 | UniProt P62310 | 1.02 ± 0.04 | 1.02 ± 0.059 | 0.974 ± 0.015 | 0.959 ± 0.051 | 0.943 ± 0.042 | 0.927 ± 0.032
11 | UniProt P63146 | 1.01 ± 0.02 | 1.017 ± 0.0041 | 1.012 ± 0.0021 | 0.9736 ± 0.0039 | 1.02 ± 0.028 | 1.018 ± 0.0042
12 | GMFB (UniProt P60983) | 1.02 ± 0.035 | 1.06 ± 0.037 | 1.03 ± 0.036 | 1.01 ± 0.042 | 1.04 ± 0.045 | 0.985 ± 0.075
13 | UniProt P62714 | 1.03 ± 0.015 | 0.997 ± 0.023 | 0.975 ± 0.018 | 0.943 ± 0.035 | 0.96 ± 0.043 | 0.967 ± 0.049
14 | UniProt Q06330 and related entries | 0.972 ± 0.076 | 0.964 ± 0.032 | 1.03 ± 0.041 | 1.07 ± 0.12 | 1.13 ± 0.1 | 1.1 ± 0.1
15 | UniProt P68104 and related entries | 0.977 ± 0.012 | 0.95 ± 0.021 | 0.95 ± 0.053 | 1.01 ± 0.022 | 1 ± 0.033 | 0.985 ± 0.02
16 | MRPS25 (UniProt P82663) | 1.03 ± 0.041 | 1.01 ± 0.014 | 1.02 ± 0.07 | 0.975 ± 0.067 | 0.962 ± 0.068 | 0.961 ± 0.069
17 | UniProt P61966 | 1.02 ± 0.026 | 1.07 ± 0.095 | 1.06 ± 0.072 | 1.05 ± 0.051 | 1.06 ± 0.046 | 1.05 ± 0.078
18 | UniProt P56937 and related entries | 0.995 ± 0.021 | 0.926 ± 0.084 | 0.949 ± 0.012 | 0.972 ± 0.03 | 0.965 ± 0.015 | 0.949 ± 0.036
19 | UniProt Q07817 and related entries | 1 ± 0.024 | 1.03 ± 0.046 | 1.02 ± 0.019 | 0.958 ± 0.025 | 0.98 ± 0.016 | 0.96 ± 0.053
20 | UniProt P62280 | 0.953 ± 0.064 | 0.906 ± 0.075 | 0.857 ± 0.13 | 0.844 ± 0.1 | 0.777 ± 0.083 | 0.821 ± 0.13
21 | RPS3A (UniProt P61247) | 0.96 ± 0.052 | 0.931 ± 0.044 | 0.918 ± 0.11 | 0.895 ± 0.081 | 0.83 ± 0.057 | 0.947 ± 0.11
22 | DSTN (UniProt P60981) | 0.9927 ± 0.0091 | 1 ± 0.032 | 0.986 ± 0.026 | 1.05 ± 0.076 | 1.06 ± 0.05 | 1.05 ± 0.06
23 | UniProt P98095 and related entries | 1.01 ± 0.036 | 1.05 ± 0.047 | 1.03 ± 0.015 | 1.01 ± 0.02 | 0.984 ± 0.028 | 1.03 ± 0.049
24 | UniProt Q01518 and related entries | 1.02 ± 0.018 | 1.02 ± 0.078 | 1.02 ± 0.036 | 1.06 ± 0.03 | 1.07 ± 0.034 | 1.06 ± 0.038
25 | UniProt P62081 | 0.97 ± 0.043 | 0.945 ± 0.029 | 0.936 ± 0.099 | 0.943 ± 0.014 | 0.953 ± 0.08 | 0.977 ± 0.09
26 | UniProt Q05469 and related entries | 1.012 ± 0.0077 | 0.994 ± 0.021 | 1.003 ± 0.0044 | 0.9941 ± 0.0017 | 1.003 ± 0.01 | 0.989 ± 0.016
27 | XIAP (UniProt P98170) | 1.01 ± 0.033 | 1.01 ± 0.033 | 1.02 ± 0.057 | 0.97 ± 0.026 | 0.987 ± 0.045 | 0.985 ± 0.053
28 | UniProt P62072 | 1.01 ± 0.027 | 1.05 ± 0.074 | 0.957 ± 0.014 | 0.891 ± 0.046 | 0.86 ± 0.032 | 0.886 ± 0.019
29 | ARF3 (UniProt P61204) | 0.951 ± 0.046 | 0.854 ± 0.12 | 0.999 ± 0.027 | 1.04 ± 0.11 | 1.12 ± 0.12 | 1.05 ± 0.034
30 | UniProt Q00653 and related entries | 1.01 ± 0.022 | 1.01 ± 0.038 | 1 ± 0.048 | 0.968 ± 0.044 | 0.957 ± 0.029 | 0.954 ± 0.037

Seven consecutive records already listed, for reference:
Row | Target | NP40-soluble protein abundance (concentration: 1mM) | NP40-soluble protein abundance (concentration: 2mM) | NP40-soluble protein abundance (concentration: 4mM) | NP40-soluble protein abundance (concentration: 6mM) | NP40-soluble protein abundance (concentration: 8mM) | NP40-soluble protein abundance (concentration: 10mM)
5 | SP4 (UniProt Q02446) | 1.02 ± 0.03 | 1.04 ± 0.047 | 0.999 ± 0.014 | 1.01 ± 0.017 | 1.01 ± 0.054 | 1.03 ± 0.032
6 | UniProt P62851 | 1.01 ± 0.053 | 1.04 ± 0.051 | 0.961 ± 0.04 | 0.9841 ± 0.0092 | 0.792 ± 0.038 | 1.07 ± 0.063
7 | UniProt P62273 | 0.9864 ± 0.0094 | 0.974 ± 0.046 | 0.96 ± 0.075 | 0.921 ± 0.044 | 0.806 ± 0.12 | 0.962 ± 0.09
8 | UniProt Q04727 and related entries | 1 ± 0.02 | 1.01 ± 0.012 | 0.9614 ± 0.0064 | 0.9512 ± 0.0039 | 0.908 ± 0.028 | 0.948 ± 0.021
9 | UniProt P61254 | 0.992 ± 0.12 | 0.988 ± 0.11 | 0.965 ± 0.1 | 0.937 ± 0.082 | 0.954 ± 0.12 | 1.03 ± 0.21
10 | UniProt P62310 | 1.02 ± 0.04 | 1.02 ± 0.059 | 0.974 ± 0.015 | 0.959 ± 0.051 | 0.943 ± 0.042 | 0.927 ± 0.032
11 | UniProt P63146 | 1.01 ± 0.02 | 1.017 ± 0.0041 | 1.012 ± 0.0021 | 0.9736 ± 0.0039 | 1.02 ± 0.028 | 1.018 ± 0.0042

Reference: the supplement of paper PMC6411743
